The values below come from PMC5349851.

Only a part is listed here, and it is no random draw. At the low end of the ranking the order means little. Some of the results follow.

Some test systems named below: FOS + CEBPE; FOS + BATF; FOS + FOSL1; FOS + BATF2; FOS + CREB3; FOS + NFE2L1; FOS + CREB3L3.
Holding throughout (test): SELEX-seq (CSI, HT-SELEX, round 3)
What all share (conditions): SELEX-seq: 1x PBS (10 mM phosphate, 137 mM NaCl, 2.7 mM KCl) pH 7.6, 2.5 mM DTT, 50 ng/ul poly dI-dC, 0.1% BSA, 50 nM biotinylated bZIP (1:3 with partner for …); high values mean tight binding; double strand, one strand shown

The test system of a further test is T1, FOSL1 + FOSL1.
T1 sequence 1: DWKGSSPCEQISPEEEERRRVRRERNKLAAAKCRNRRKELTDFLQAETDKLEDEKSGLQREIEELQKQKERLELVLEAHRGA
T1 sequence 2: T1 sequence 1

For the next test, the system named is T2, BATF + NFIL3.
T2 sequence 1: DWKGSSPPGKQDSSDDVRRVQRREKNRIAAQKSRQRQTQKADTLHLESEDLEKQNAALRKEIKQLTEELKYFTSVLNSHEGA
T2 sequence 2: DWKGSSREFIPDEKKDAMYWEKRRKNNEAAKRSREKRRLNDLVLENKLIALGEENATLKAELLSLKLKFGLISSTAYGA

The next test relates to T3, FOSL1 + CEBPE.
T3 sequence 1: T1 sequence 1
T3 sequence 2: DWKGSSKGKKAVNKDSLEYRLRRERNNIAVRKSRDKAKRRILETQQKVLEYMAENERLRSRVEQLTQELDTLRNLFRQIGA

Consider ATGATGCAAT, for which the binding signal (relative CSI intensity (max = 1)) in the test with FOSL1 + FOSL1 is 0.00963; in the test with FOS + CEBPE, 0.000865; with FOS + BATF it was 0.000657; in the test with FOS + FOSL1, -0.0244; in the test with FOS + BATF2 it was 0.000156.
ATGACGTAAT: the binding signal (relative CSI intensity (max = 1)) with FOS + CEBPE is 0.000404; in the test with FOS + BATF2, 0.0531; with FOS + CREB3, -0.00861.
Take ATGACGGAAT: the binding signal (relative CSI intensity (max = 1)) was -0.0417 in the test with BATF + NFIL3; -0.00422 in the test on FOSL1 + CEBPE; -0.0038 with FOSL1 + FOSL1; 0.000134 in the test on FOS + CEBPE; 8.02e-05 with FOS + BATF; 0.000862 in the test on FOS + BATF2.
ATGACGTCAT: in the test on FOS + BATF2, the binding signal (relative CSI intensity (max = 1)) came out at 1.
Turning to CCTGACGTCA, the binding signal (relative CSI intensity (max = 1)) in the test with BATF + NFIL3 was -0.0141; in the test on FOS + CEBPE, 0.000612; in the test on FOS + FOSL1, -0.0195; in the test with FOS + NFE2L1 it was -0.00103; in the test with FOS + BATF2, 0.00375; in the test on FOS + CREB3L3 it was -0.000103.
